For one compound, ED50 results are on record in US4162316A (priority 1975, dated 1979).

What is called ED50 is the midpoint of the dose-response relation.

The test system of the test is female mice of ddN strain. In words: animal or person. The conditions noted are these: Mus musculus, po, 0.5 h, read-out: Analgesic activity ED50-value, Phenylquinone method (p.o.).

`CN1CC[C@]23c4c5ccc(O)c4O[C@H]2[C@@H](O)C=C[C@H]3[C@H]1C5.Cl` [Reference compound D, Morphine hydrochloride]: the ED50 was 4.2 mg/kg.
